{"source": "PubChem BioAssay AID540256", "about": "(National Center for Advancing Translational Sciences (NCATS), 2011)", "note": "About 3,700 (1.2%) of roughly 300,000 compounds were called active. The inconclusive results got no clear call from the source; some entries with a clear call stand among them for comparison. Calls follow the shape of the full dose curve; tested in HEK293 cells. A potency beside an inconclusive call is a rough fit, not a confirmed value. % is scaled to controls: 0 for no effect and ±100 for the full control effect; potency is read from the fitted curve at half-maximal effect."}
{"assay": "qHTS for Inhibitors of binding or entry into cells for Lassa Virus; also: nearly all actives have a fitted effect of over 50% in size", "conditions": "Lassa virus pseudotype entry inhibition, cell reporter; activity change, negative = inhibition: at 37.9 µM (top of the series) unless noted"}
{"molecule": "CCOc1ccccc1NC(=O)NCCC1=CCCCC1", "Potency": "inconclusive: 7.08 µM [inhibitor, full curve, poor fit]"}
{"molecule": "N#Cc1ccc(NC(=O)CCc2nc3ccccc3s2)cc1", "activity change, negative = inhibition": "inactive: -2.35%"}
{"molecule": "CCOC(=O)CSc1nc(COc2ccccc2)nc2ccccc12", "Potency": "inconclusive: 5.62 µM [inhibitor, single point]"}
{"molecule": "COc1ccc(N2CCN(CC(O)COc3ccc(C(C)C)c(C)c3)CC2)cc1", "note": "(centres undefined)", "Potency": "inconclusive: 25.1 µM [inhibitor, single point]"}
{"molecule": "O=C(Nc1ccc(N2CCCC2)cc1)c1cccc(F)c1", "Potency": "inconclusive: 0.326 µM [activator, partial curve, poor fit]"}
{"molecule": "Cc1csc(NC(=O)CSc2nc3ccccc3c(=O)[nH]2)n1", "Potency": "inconclusive: 18.3 µM [inhibitor, single point]"}
{"molecule": "S=C(NCc1ccco1)N1CCN(C(c2ccccc2)c2ccccc2)CC1", "Potency": "inconclusive: 5.8 µM [inhibitor, partial curve, poor fit]"}
{"molecule": "Cc1cc(NN)nc(Cc2ccccc2)n1", "Potency": "inconclusive: 1.58 µM [inhibitor, partial curve, poor fit]"}
{"molecule": "CC(C)Oc1ccc(C(=O)Nc2ccc(N(C)C)cc2)cc1", "Potency": "inconclusive: 32.6 µM [inhibitor, single point]"}
{"molecule": "O=C(Nc1ccccc1C(=O)O)c1cncc(Br)c1", "activity change, negative = inhibition": "inactive: 6.97%"}
{"molecule": "O=C(Nc1c(-c2ccccc2)nc2ncccn12)c1cc2ccccc2oc1=O", "activity change, negative = inhibition": "inactive: 0.268%"}
{"molecule": "COc1ccc(N2Cc3ccccc3C2=NC(=O)c2cccc([N+](=O)[O-])c2)cc1", "activity change, negative = inhibition": "inactive: 17.8%"}
{"molecule": "CC(C)(C)OC(=O)N1CCCC(C(=O)Nc2ccc(C(=O)NC3CC3)cc2)C1", "note": "(centres undefined)", "Potency": "inconclusive: 12.5 µM [activator, single point]"}
{"molecule": "O=c1oc(-c2cc3ccccc3o2)nc2sc3c(c12)CCCC3", "Potency": "inconclusive: 20.6 µM [inhibitor, partial curve, poor fit]"}
{"molecule": "O=C(NC1=NCCS1)C1COc2ccccc2O1", "note": "(centres undefined)", "Potency": "inconclusive: 1.12 µM [inhibitor, full curve]"}
{"molecule": "O=C(Cn1ncc(Cl)c(Cl)c1=O)NCC1CCCCC1", "Potency": "active: 17.8 µM"}
{"molecule": "NC1=NC(=Nc2ccc(Br)cc2)c2ccccc21", "Potency": "inconclusive: 11.2 µM [inhibitor, partial curve, poor fit]"}
{"molecule": "O=C(NCC(c1ccco1)N1CCN(c2ccccc2)CC1)C(=O)NC1CCCC1", "note": "(centres undefined)", "Potency": "inconclusive: 20 µM [inhibitor, partial curve, poor fit]"}
{"molecule": "CCOC(=O)N1CCc2c(sc3c2C(=O)NC(c2ccccc2)N3)C1", "note": "(centres undefined)", "Potency": "inconclusive: 3.55 µM [inhibitor, full curve]"}
{"molecule": "Cc1ccc(S(=O)(=O)N2CCN=C2SCc2ccccc2)cc1", "Potency": "inconclusive: 32.6 µM [inhibitor, single point]"}
{"molecule": "O=C(COc1ccccc1)NNc1c2ccccc2nc2ccccc12", "Potency": "inconclusive: 35.5 µM [inhibitor, single point]"}
{"molecule": "N#CCCCC1(CCCC#N)OCCO1", "activity change, negative = inhibition": "inactive: 0.291%"}
{"molecule": "O=c1c(-c2cnn(-c3ccccc3)c2)coc2cc(O)ccc12", "Potency": "inconclusive: 22.4 µM [inhibitor, single point]"}
{"molecule": "Nc1nc(Cl)cc(N2CCC(c3cc(-c4ccc(Cl)cc4Cl)n[nH]3)CC2)n1", "Potency": "inconclusive: 32.6 µM [inhibitor, single point]"}
{"molecule": "COc1ccc(-c2nc(C(=O)O)cs2)cc1OC", "activity change, negative = inhibition": "inactive: 9.61% [at 46.1 µM]"}
{"molecule": "CCN(CC)S(=O)(=O)c1cccc(C(=O)Nc2ccc(Cl)cn2)c1", "Potency": "inconclusive: 29.1 µM [inhibitor, single point]"}
{"molecule": "N#Cc1ccccc1/C=N/Nc1nc(-c2ccccc2)c2cc(Cl)ccc2n1", "activity change, negative = inhibition": "inactive: 18.1%"}
{"molecule": "CCc1cccc(CC)c1-n1c(SCn2nnc3ccccc3c2=O)nnc1-c1cccnc1", "Potency": "inconclusive: 35.5 µM [inhibitor, single point]"}
{"molecule": "COc1cccc(OC)c1C1=NC(C)(C)CO1", "Potency": "inconclusive: 35.5 µM [inhibitor, single point]"}
{"molecule": "CCCN(CCC)C(C(=O)Nc1cccc(OC)c1)c1ccccc1", "note": "(centres undefined)", "activity change, negative = inhibition": "inactive: 15.2%"}
{"molecule": "CCCc1ccc(OCc2ccc(C(=O)N3CCN(c4ccccn4)CC3)o2)c(OC)c1", "activity change, negative = inhibition": "inactive: 32.5% [at 14.3 µM]"}
{"molecule": "CC(C)(C)c1ccc(OCC(=O)N/N=C/c2ccsc2)cc1", "Potency": "inconclusive: 11.2 µM [inhibitor, partial curve]"}
{"molecule": "O=C(Nc1ccc(NC(=O)c2ccc(Br)cc2)c(Cl)c1)c1ccc(Br)cc1", "activity change, negative = inhibition": "inactive: 6.74% [at 46.1 µM]"}
{"molecule": "Cc1cc(Oc2ccc(C(F)(F)F)cc2[N+](=O)[O-])c2c3c(c(=O)oc2c1)CCCC3", "Potency": "inconclusive: 7.08 µM [inhibitor, partial curve, poor fit]"}
{"molecule": "O=C1Cc2ccccc2C(=O)N1Cc1cccc(Cl)c1", "Potency": "inconclusive: 5.01 µM [activator, full curve, poor fit]"}
{"molecule": "O=C(c1cc(Cl)cc(Cl)c1)N1CCC(=O)N(C(COCc2ccccc2)Cc2ccccc2)CC1", "note": "(centres undefined)", "Potency": "inconclusive: 13 µM [inhibitor, partial curve, poor fit]"}
{"molecule": "COc1ccc(CNc2oc(COc3cccc(C)c3)nc2C#N)cc1", "activity change, negative = inhibition": "inactive: -18.8% [at 46.1 µM]"}
{"molecule": "Cc1ccc(N2C(=O)CN=C2Nc2nc(C)cc(C)n2)cc1", "Potency": "inconclusive: 1.12 µM [inhibitor, partial curve, poor fit]"}
{"molecule": "Cc1ccsc1/C=N/N1CCN(c2ccccc2)CC1", "Potency": "inconclusive: 0.073 µM [activator, full curve, poor fit]"}
{"molecule": "Cc1ccc(NC(=O)CN(C)C(=O)c2cc(S(=O)(=O)N(C)C)ccc2N2CCCC2)cc1", "Potency": "inconclusive: 3.55 µM [inhibitor, single point]"}
{"molecule": "O=C(NCc1ccccc1Cl)c1cnc2ccccc2n1", "Potency": "inconclusive: 31.6 µM [inhibitor, partial curve, poor fit]"}
{"molecule": "COc1ccc(-c2csc(NC(=O)CCCc3nc4ccccc4c(=O)[nH]3)n2)cc1OC", "Potency": "inconclusive: 12.6 µM [inhibitor, partial curve]"}
{"molecule": "CC[n+]1cccc(-c2nc3ccccc3s2)c1", "activity change, negative = inhibition": "inactive: -6.56%"}
{"molecule": "COc1cccc(CNC(=O)CN(c2ccc(C(C)C)cc2)S(=O)(=O)c2c(C)n[nH]c2C)c1", "Potency": "inconclusive: 7.08 µM [inhibitor, partial curve]"}
{"molecule": "CCOC(=O)CC(=O)CSc1nc2ccccc2c(=O)n1CCc1ccccc1", "activity change, negative = inhibition": "inactive: -18.2% [at 46.1 µM]"}
{"molecule": "Cc1ccc(SCc2nc(-c3ccc(C(=O)NCc4ccccc4Cl)cc3)oc2C)cc1", "Potency": "inconclusive: 2.24 µM [inhibitor, full curve]"}
{"molecule": "CC(C)Cc1ccc(C(C)C(=O)Nc2nccs2)cc1", "note": "(centres undefined)", "activity change, negative = inhibition": "inactive: -21.9%"}
{"molecule": "COc1cc(C(=O)NC2CCN(Cc3ccccc3)CC2)cc(Cl)c1OC(C)C", "Potency": "inconclusive: 7.3 µM [inhibitor, partial curve, poor fit]"}
{"molecule": "Cc1cccc(Cn2c(SCc3ccc(C(=O)NCCc4ccccc4)cc3)nc3cccnc32)c1", "Potency": "inconclusive: 35.5 µM [inhibitor, single point]"}
{"molecule": "COc1ccc(N(C(=O)Cn2nnc3ccccc32)C(C(=O)NCc2ccco2)c2ccc(C)o2)cc1", "note": "(centres undefined)", "Potency": "inconclusive: 11.2 µM [inhibitor, partial curve, poor fit]"}
{"molecule": "CCOC(=O)c1c(N2C(=O)Nc3cc(Cl)c(Cl)cc3N2O)sc2c1CCCCC2", "Potency": "inconclusive: 8.91 µM [inhibitor, partial curve]"}
{"molecule": "CCCn1c(NC(=O)c2ccc(Cl)c(S(=O)(=O)N3CCCC3)c2)nc2ccccc21", "Potency": "inconclusive: 9.2 µM [inhibitor, partial curve, poor fit]"}
{"molecule": "Nc1nonc1-n1nnc(C(=O)N/N=C/c2ccncc2)c1-c1cccs1", "activity change, negative = inhibition": "inactive: 4.99% [at 46.1 µM]"}
{"molecule": "COc1cccc(NC(=O)CN(C)C(=O)c2ccc(NC3CC3)c([N+](=O)[O-])c2)c1", "activity change, negative = inhibition": "inactive: -1.12%"}
{"molecule": "CCOc1ccc(S(=O)(=O)n2cnc3cc(C)c(C)cc32)cc1", "Potency": "inconclusive: 13 µM [inhibitor, partial curve, poor fit]"}
{"molecule": "COc1ccc(C(=O)CN2CCCCC2)cc1", "Potency": "inconclusive: 35.5 µM [activator, single point]"}
{"molecule": "COc1ccc(Cn2cnc3c(NS(C)(=O)=O)c(C)c(C)cc32)cc1", "activity change, negative = inhibition": "inactive: -19.4%"}
{"molecule": "O=C(NCCc1cccnc1)c1cc(COc2ccc(F)cc2Cl)on1", "Potency": "inconclusive: 6.31 µM [activator, single point]"}
{"molecule": "O=C(Cn1nnc(-c2ccc(OCc3ccccc3F)cc2)n1)N1CCOCC1", "activity change, negative = inhibition": "inactive: 5.99%"}
{"molecule": "Cc1nc2ccc(S(=O)(=O)N(CC(=O)Nc3ccc(Cl)cc3)Cc3ccccc3)cc2s1", "Potency": "inconclusive: 6.31 µM [inhibitor, single point]"}
{"molecule": "COc1cc(Cl)c(C)cc1Nc1c2c(nc3ccccc13)CCC2", "Potency": "inconclusive: 8.91 µM [inhibitor, partial curve, poor fit]"}
{"molecule": "Cc1cc(=O)c(C(=O)O)c(C)n1-c1ccccc1", "activity change, negative = inhibition": "inactive: 25.4%"}
{"molecule": "Cc1occc1C(=O)Nc1c(F)c(F)c(F)c(F)c1F", "Potency": "inconclusive: 7.08 µM [activator, partial curve, poor fit]"}
{"molecule": "CCc1cccc(CC)c1NC(=O)c1c(C)oc2ccc(O)c(CN3CCOCC3)c12", "activity change, negative = inhibition": "inactive: -2.31% [at 46.1 µM]"}
{"molecule": "CCCCCCCCn1c(N2CCN(c3cccc(Cl)c3)CC2)nc2c1c(=O)[nH]c(=O)n2C", "Potency": "inconclusive: 29.1 µM [inhibitor, single point]"}
{"molecule": "Cc1cc(C)nc(Sc2ccc(/C=C(\\C#N)C(=O)Nc3ccccc3)o2)n1", "activity change, negative = inhibition": "inactive: 2.37%"}
{"molecule": "CCOc1ccccc1CNC(=O)CN1C(=O)CCn2nc(-c3cn(C)c4ccccc34)cc21", "Potency": "inconclusive: 35.5 µM [inhibitor, single point]"}
{"molecule": "CCOC(=O)c1cccc(NC(=O)CSc2nnc(C)n2CC2CCCO2)c1", "note": "(centres undefined)", "Potency": "inconclusive: 6.31 µM [activator, full curve, poor fit]"}
{"molecule": "Cc1cccc(Nc2ccc(C(=O)O)cc2[N+](=O)[O-])c1C", "Potency": "inconclusive: 1.26 µM [inhibitor, single point]"}
